In PMC4357719, “Roles of Rad51 paralogs for promoting homologous recombination in Leishmania infantum” one finds binding data, which are given here for three substances.

By UniProt entry, the sequences of proteins in these tests, tags left out. Where a name states a change or a piece, a line headed by the entry shows the natural chain unless it says otherwise.
UniProt A4I499: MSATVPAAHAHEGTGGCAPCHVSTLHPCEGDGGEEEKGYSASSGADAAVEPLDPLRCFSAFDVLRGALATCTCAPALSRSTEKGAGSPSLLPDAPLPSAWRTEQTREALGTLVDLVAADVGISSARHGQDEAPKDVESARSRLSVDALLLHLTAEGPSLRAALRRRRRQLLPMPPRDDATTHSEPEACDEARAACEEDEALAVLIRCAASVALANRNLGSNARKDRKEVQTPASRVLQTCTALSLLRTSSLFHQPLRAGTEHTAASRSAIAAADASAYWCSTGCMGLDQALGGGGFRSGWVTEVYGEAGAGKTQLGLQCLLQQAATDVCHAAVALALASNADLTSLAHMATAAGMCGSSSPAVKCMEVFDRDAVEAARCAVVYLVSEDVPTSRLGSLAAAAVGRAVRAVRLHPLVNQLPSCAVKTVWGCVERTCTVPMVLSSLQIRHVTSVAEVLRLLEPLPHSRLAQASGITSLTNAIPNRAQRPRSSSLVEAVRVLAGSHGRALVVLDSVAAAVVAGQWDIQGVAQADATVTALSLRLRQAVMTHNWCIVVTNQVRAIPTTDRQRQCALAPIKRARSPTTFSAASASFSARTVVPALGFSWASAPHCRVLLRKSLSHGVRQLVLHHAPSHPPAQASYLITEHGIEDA
UniProt E9AHR7: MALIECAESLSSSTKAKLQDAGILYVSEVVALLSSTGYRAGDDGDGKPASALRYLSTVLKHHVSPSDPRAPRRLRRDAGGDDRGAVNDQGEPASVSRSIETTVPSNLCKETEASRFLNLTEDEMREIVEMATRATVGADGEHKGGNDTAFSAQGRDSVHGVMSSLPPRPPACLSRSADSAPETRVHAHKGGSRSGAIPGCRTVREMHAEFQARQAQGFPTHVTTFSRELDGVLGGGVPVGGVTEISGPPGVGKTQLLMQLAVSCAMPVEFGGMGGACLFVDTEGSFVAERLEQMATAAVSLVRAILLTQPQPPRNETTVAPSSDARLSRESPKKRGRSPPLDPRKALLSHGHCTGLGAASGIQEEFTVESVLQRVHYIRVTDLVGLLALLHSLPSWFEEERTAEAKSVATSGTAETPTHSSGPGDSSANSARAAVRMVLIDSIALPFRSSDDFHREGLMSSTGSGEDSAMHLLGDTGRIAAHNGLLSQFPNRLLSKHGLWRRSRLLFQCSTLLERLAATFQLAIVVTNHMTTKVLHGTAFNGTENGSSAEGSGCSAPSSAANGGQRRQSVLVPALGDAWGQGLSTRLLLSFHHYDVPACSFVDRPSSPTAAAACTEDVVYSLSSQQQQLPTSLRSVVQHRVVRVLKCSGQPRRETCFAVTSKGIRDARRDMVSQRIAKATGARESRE
UniProt A4HUT5: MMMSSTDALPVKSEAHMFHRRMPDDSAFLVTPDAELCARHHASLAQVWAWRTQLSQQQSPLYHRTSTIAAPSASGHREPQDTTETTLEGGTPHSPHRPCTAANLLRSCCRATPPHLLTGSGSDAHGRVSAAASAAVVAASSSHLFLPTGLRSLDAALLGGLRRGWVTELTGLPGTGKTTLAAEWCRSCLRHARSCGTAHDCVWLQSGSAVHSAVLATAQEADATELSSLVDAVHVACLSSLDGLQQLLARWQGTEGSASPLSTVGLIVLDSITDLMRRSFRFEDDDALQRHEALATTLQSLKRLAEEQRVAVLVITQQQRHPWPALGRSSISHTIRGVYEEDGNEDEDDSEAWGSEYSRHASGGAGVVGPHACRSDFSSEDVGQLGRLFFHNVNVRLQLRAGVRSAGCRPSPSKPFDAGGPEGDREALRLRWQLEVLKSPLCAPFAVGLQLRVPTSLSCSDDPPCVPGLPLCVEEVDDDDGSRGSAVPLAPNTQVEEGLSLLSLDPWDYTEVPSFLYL

Results are given in words; binding and its absence hold for the method and conditions named. In cells and extracts the contact can be indirect. A result given as binding can be weak or reduced; the word gives no strength. For some of these results: Where a sequence is shown, tags or fusion partners need not be part of it.

Experiment [1] concerns the target T1, LiRad51-GST (Leishmania infantum) (UniProt A4I3C9).
T1 sequence: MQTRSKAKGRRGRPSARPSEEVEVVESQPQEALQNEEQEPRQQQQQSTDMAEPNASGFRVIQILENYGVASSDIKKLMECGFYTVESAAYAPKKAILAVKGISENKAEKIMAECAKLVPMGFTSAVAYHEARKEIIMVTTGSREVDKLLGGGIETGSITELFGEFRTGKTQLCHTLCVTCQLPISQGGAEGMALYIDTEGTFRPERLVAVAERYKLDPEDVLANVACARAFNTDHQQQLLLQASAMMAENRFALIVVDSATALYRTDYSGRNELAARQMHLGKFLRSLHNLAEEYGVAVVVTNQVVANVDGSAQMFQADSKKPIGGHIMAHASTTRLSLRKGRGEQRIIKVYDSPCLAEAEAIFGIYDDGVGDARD
As to the kind of experiment: pull-down; LiRad51-GST co-infected for 48 h with LiRad51-3-Myc, LiRad51-4-V5 or LiRad51-6-HA in Sf9 cells; lysis in PBS buffer (300 mM NaCl, 1 mM EDTA, 1 mM DTT, 0.2% Triton); glutathione beads 1 h at 4°C; washes with 500 mM NaCl.

The target of experiment [2] is LiRad51-6-HA (Leishmania infantum) (UniProt A4I499). As to the kind of experiment: co-IP; anti-HA antibody on Sf9 cell extract containing LiRad51-3-Myc, LiRad51-6-HA and LiRad51-4-V5.
The target in experiment [3] is LiRad51-3-GST (Leishmania infantum) (UniProt E9AHR7). As to the kind of experiment: pull-down; GST pull-down from Sf9 cells co-expressing LiRad51-3-GST, LiRad51-4-V5 and LiRad51-6-HA; the GST then cleaved.

For LiRad51-3-Myc (from UniProt E9AHR7), the binding entry in experiment [1] and in experiment [2] was “binds” each time.

LiRad51-6-HA (from UniProt A4I499): the binding entry in experiment [1] and in experiment [3] was “binds” in each case.

On to LiRad51-4-V5 (from UniProt A4HUT5), for which the binding entry in experiment [1], in experiment [3] and in experiment [2] was “binds” each time.
